Measured data: PubChem BioAssay AID686943 (Drosophila RNAi Screening Center, 2013)
The deposit covers about 23,000 reagents; this is an unselected part of those that have a named target and a result. 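Extra replicates exist only for a retested subset of genes; insulin dose and duration not given; both raised and lowered dpERK matter.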 Further read-outs or replicates are left out here. Not stated in the record: the amount of reagent, the time to read-out.

- Screen: 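Search across the genome for regulators of signalling from receptor tyrosine kinase to ERK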 (primary screen)
- Cells: Drosophila S2R+ haemocyte-like cells expressing YFP-tagged ERK (Rolled)
- Reagents: long dsRNA against Drosophila genes
- Conditions: insulin stimulation versus unstimulated cells; dose and duration not given
- Measurement: 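Antibody staining for doubly phosphorylated ERK divided by ERK-YFP signal, as plate z-scores, in insulin-treated and untreated cells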
- Scale: replicate 1, z-score of dpERK with insulin: higher = more active ERK per ERK-YFP after insulin

CG9281 [SID104199971] gave replicate 1, z-score of dpERK with insulin 0.06.
SdhCL (Succinate dehydrogenase, subunit C-like) [SID104195870] showed replicate 1, z-score of dpERK with insulin 1.06.
Depletion of CG33140 [SID104185822] resulted in: replicate 1, z-score of dpERK with insulin 0.2.
Depletion of CG13192 [SID104186109] resulted in: replicate 1, z-score of dpERK with insulin 0.42.
After knock-down of Acox3 (Acyl-CoA oxidase 3) [SID104183043], the record shows replicate 1, z-score of dpERK with insulin 0.44.
Depletion of Atxn7 (Ataxin 7) [SID104180518] gave: replicate 1, z-score of dpERK with insulin 1.27.
With knock-down of CG33127 [SID104179803], the record shows replicate 1, z-score of dpERK with insulin 0.1.
side-VI (sidestep VI) [SID104192620] gave replicate 1, z-score of dpERK with insulin -0.39.
After knock-down of side-VI (sidestep VI) [SID104192622] the results were replicate 1, z-score of dpERK with insulin 1.15.
Silencing of side-VI (sidestep VI) [SID104194712] came out at: replicate 1, z-score of dpERK with insulin -0.23.
With knock-down of side-VI (sidestep VI) [SID104195416], the screen gave replicate 1, z-score of dpERK with insulin -0.85.
For Muc68Ca (Mucin 68Ca) [SID104190104] the deposit lists replicate 1, z-score of dpERK with insulin -0.24.
After knock-down of Muc68Ca (Mucin 68Ca) [SID104190105], the screen gave replicate 1, z-score of dpERK with insulin 0.94.
bowl [SID104180597] gave replicate 1, z-score of dpERK with insulin -0.2.
For betaTub60D (beta-Tubulin at 60D) [SID104184465], the values are replicate 1, z-score of dpERK with insulin 0.78.
With knock-down of betaTub60D (beta-Tubulin at 60D) [SID104201752], the screen gave replicate 1, z-score of dpERK with insulin -0.47.
Silencing of CG30008 [SID104201286] gave: replicate 1, z-score of dpERK with insulin 0.46.
Naxe (NAD(P)HX epimerase) [SID104198043] showed replicate 1, z-score of dpERK with insulin 0.33.
Against Arms (Ankyrin repeat-rich membrane spanning) [SID104183648], the entry reads replicate 1, z-score of dpERK with insulin -0.23.
Arms (Ankyrin repeat-rich membrane spanning) [SID104183649] scored replicate 1, z-score of dpERK with insulin 0.
Knock-down of Arms (Ankyrin repeat-rich membrane spanning) [SID104183844] resulted in: replicate 1, z-score of dpERK with insulin 0.54.
Arms (Ankyrin repeat-rich membrane spanning) [SID104184048] showed replicate 1, z-score of dpERK with insulin -6.7.
Silencing of CG3894 [SID104181554] resulted in: replicate 1, z-score of dpERK with insulin -0.01.
After knock-down of CG3894 [SID104183804] the results were replicate 1, z-score of dpERK with insulin 0.34.
With knock-down of CG3894 [SID104184221] the results were replicate 1, z-score of dpERK with insulin -0.97.
Syb (Synaptobrevin) [SID104187351] showed replicate 1, z-score of dpERK with insulin 0.58.
After knock-down of l(1)G0020 (lethal (1) G0020) [SID104197990], the record shows replicate 1, z-score of dpERK with insulin -0.64.
Depletion of sac (sterile affecting ciliogenesis) [SID104192029] came out at: replicate 1, z-score of dpERK with insulin 1.06.
After knock-down of CG12684 [SID104197667], the screen gave replicate 1, z-score of dpERK with insulin 0.47.
With knock-down of Naam (Nicotinamide amidase) [SID104196044] the results were replicate 1, z-score of dpERK with insulin 0.47.
Depletion of MYPT-75D (Myosin phosphatase targeting subunit 75D) [SID104190535] resulted in: replicate 1, z-score of dpERK with insulin 0.44.
